Data as given in PubChem BioAssay AID652243 (Drosophila RNAi Screening Center, 2013).
Purpose: 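Fly regulators of androgen-dependent reporter output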 (primary screen). Cells: Drosophila S2R+ cells. Reagent: long dsRNA against Drosophila genes. Duration: 72 h (48 h, then 24 h hormone). Conditions: synthetic androgen R1881 at 10 nM for 24 h. Read-out: 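Firefly light from an androgen-responsive reporter and Renilla control light per well, raw and unnormalised, for each of two replicates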. Scale: firefly reporter light: higher = more light from androgen-responsive reporter; Renilla control light: higher = more constitutive control signal (cell number, transfection). Call rule: 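Hit when the log firefly-to-Renilla ratio dropped or increased by a fixed fold versus the mean of GFP or LacZ controls across duplicate plates; lowering cut given as 1.5 and as 3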. Calls: active = hit: reporter lowered or raised; inactive = no hit.
The deposit covers about 24,000 reagents; shown is an unselected part of those with a known target gene and a result. Of all reagents, 246 (1%) got an active call. 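Plates not normalised; calls are printed but the firefly/Renilla ratio behind them is not deposited; fold cut for lowering reported inconsistently.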 The raw values are shown without normalisation. Unmarked entries are inactive. Reagents against one gene are numbered here. Not stated in the record: the amount of reagent.

Gene	reagent no.	firefly reporter light, replicate 1	firefly reporter light, replicate 2	Renilla control light, replicate 1	Renilla control light, replicate 2
ND-13B (NADH dehydrogenase (ubiquinone) 13 kDa B subunit)	1	2.73e5	1.81e5	2.18e6	1.43e6
ND-13B (NADH dehydrogenase (ubiquinone) 13 kDa B subunit)	2	3.74e5	3.03e5	1.13e6	1.31e6
CG4768	1	5.36e5	4.00e5	1.65e6	1.50e6
BBS9 (Bardet-Biedl syndrome 9)	1	2.34e5	2.40e5	1.01e6	1.41e6
BBS9 (Bardet-Biedl syndrome 9)	2	2.46e5	2.01e5	4.32e5	6.51e5
CG15262	1	97939	1.62e5	1.31e6	1.66e6
CG13560	1	3.60e5	3.05e5	2.54e6	1.74e6
CG13560	2	5.44e5	5.24e5	5.43e5	7.82e5
Gmap (Golgi microtubule-associated protein)	1	54743	1.03e5	5.98e5	6.98e5
Gmap (Golgi microtubule-associated protein)	2	5.81e5	5.09e5	2.55e6	2.77e6
Gmap (Golgi microtubule-associated protein)	3	3.37e5	2.55e5	8.93e5	8.93e5
sunn	1	4.35e5	3.87e5	1.42e6	1.53e6
CG42671	1	77110	26082	7.27e5	8.12e5
CG42671	2	2.96e5	3.04e5	2.71e6	2.18e6
CG42671	3	3.82e5	4.54e5	1.93e6	1.92e6
CG42671	4	7.61e5	7.88e5	1.66e6	2.12e6
pck (pickel)	1	1.07e5	1.22e5	6.23e5	5.53e5
Fim (Fimbrin)	1	1.52e5	1.37e5	9.32e5	7.98e5

2 consecutive reagents from above:
Gene	reagent no.	firefly reporter light, replicate 1	firefly reporter light, replicate 2	Renilla control light, replicate 1	Renilla control light, replicate 2
BBS9 (Bardet-Biedl syndrome 9)	2	2.46e5	2.01e5	4.32e5	6.51e5
CG15262	1	97939	1.62e5	1.31e6	1.66e6

The list goes on.
Gene	reagent no.	firefly reporter light, replicate 1	firefly reporter light, replicate 2	Renilla control light, replicate 1	Renilla control light, replicate 2
Bub3	1	1.25e5	62513	8.79e5	6.58e5
Bub3	2	5.48e5	4.79e5	1.24e6	1.11e6
Sld5	1	1.03e5	1.25e5	1.45e6	1.97e6
CG34005	1	1.11e6	1.02e6	2.24e6	1.77e6
CG11617	1	32533	35420	2.46e5	3.06e5
CG11617	2	2.73e5	2.65e5	1.75e6	2.00e6
CG11617	3	4.29e5	4.52e5	1.18e6	1.60e6
CG34176	1	1.31e5	1.41e5	1.19e6	1.26e6
CG34433	1	2.73e5	2.61e5	2.24e6	2.55e6
Lpin (Lipin)	1	7.61e5	7.17e5	1.68e6	1.70e6
Tdg (Thymine DNA glycosylase)	1	8.92e5	6.01e5	1.34e6	5.40e5
Tdg (Thymine DNA glycosylase)	2	1.87e5	2.73e5	3.41e6	1.88e6
Tdg (Thymine DNA glycosylase)	3	7.91e5	5.84e5	1.85e6	2.07e6
Mad1 (Mitotic arrest-deficient 1)	1	1.17e6	7.57e5	1.99e6	1.96e6
mnb (minibrain)	1	4.59e5	5.17e5	3.94e6	3.10e6
mnb (minibrain)	2	1.05e6	9.22e5	8.63e5	9.99e5
mnb (minibrain)	3	6.06e5	6.74e5	5.85e5	6.45e5
mnb (minibrain)	4	2.12e5	3.46e5	5.46e5	8.83e5
CG31100	1	1.09e5	2.10e5	2.40e6	2.65e6
CG31100	2	89070	1.12e5	2.26e6	1.54e6
CG13186	1	3.38e5	2.23e5	2.34e6	2.42e6
Prat (Phosphoribosylamidotransferase)	1	1.00e5	44843	6.93e5	4.06e5
